The record followed here is publication PMC10682013.

Sequences of proteins named here, by UniProt entry; tags and fusion partners are left off.
UniProt P52732: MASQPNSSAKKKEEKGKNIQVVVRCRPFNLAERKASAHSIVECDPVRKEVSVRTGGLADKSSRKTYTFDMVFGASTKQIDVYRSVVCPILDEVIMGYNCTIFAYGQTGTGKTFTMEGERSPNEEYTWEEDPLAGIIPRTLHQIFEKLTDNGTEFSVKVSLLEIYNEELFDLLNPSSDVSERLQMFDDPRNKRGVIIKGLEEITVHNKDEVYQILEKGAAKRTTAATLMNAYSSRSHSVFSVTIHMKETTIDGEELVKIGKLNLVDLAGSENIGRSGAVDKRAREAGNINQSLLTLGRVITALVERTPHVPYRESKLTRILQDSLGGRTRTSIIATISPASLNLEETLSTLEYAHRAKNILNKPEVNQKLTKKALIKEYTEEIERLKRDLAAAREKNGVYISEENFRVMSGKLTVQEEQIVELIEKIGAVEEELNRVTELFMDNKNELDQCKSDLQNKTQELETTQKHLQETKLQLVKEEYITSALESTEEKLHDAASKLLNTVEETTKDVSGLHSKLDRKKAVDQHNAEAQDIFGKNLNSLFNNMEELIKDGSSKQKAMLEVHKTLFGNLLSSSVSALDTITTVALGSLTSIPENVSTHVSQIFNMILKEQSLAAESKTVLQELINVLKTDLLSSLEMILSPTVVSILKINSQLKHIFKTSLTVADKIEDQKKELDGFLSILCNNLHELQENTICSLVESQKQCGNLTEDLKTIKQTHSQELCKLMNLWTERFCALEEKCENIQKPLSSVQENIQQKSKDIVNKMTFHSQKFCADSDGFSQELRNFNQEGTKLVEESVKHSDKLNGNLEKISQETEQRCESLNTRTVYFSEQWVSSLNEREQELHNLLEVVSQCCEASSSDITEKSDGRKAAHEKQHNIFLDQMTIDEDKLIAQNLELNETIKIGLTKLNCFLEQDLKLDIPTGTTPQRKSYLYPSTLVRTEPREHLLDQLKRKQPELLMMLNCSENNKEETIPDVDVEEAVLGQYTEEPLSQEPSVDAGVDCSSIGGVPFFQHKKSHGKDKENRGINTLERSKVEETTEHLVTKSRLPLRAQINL

Results are given in words; binding and its absence hold for the method and conditions named. In cells and extracts the contact can be indirect. Some binding calls cover weakened binding; strength is not graded here.

For test [1], the target named is 3×Flag-KIF11 (Kinesin Family Member 11) (UniProt P52732). Nature of the test: co-IP; 3×Flag-tagged bait expressed in HEK293T cells; whole cell lysate; precipitated with anti-3×Flag IgG, normal IgG as negative control; Western blotting of input and precipitates. In general terms: A western blot detects proteins with antibodies after separation by electrophoresis.
Test [2] concerns the target 3×Flag-TACC3 (Transforming acidic coiled-coil-containing protein 3) (UniProt Q9Y6A5). Described as above.

Consider “Transforming acidic coiled-coil-containing protein 3 (TACC3), endogenous (from UniProt Q9Y6A5 1-838)”, for which the binding result in test [1] is “binds”.
On to “Kinesin Family Member 11 (KIF11), endogenous (from UniProt P52732 1-1056)”, for which, in test [2], the binding entry was “binds”.
